These are yes or no findings as the source states them, for the method shown. In cells and extracts the contact can be indirect. Some results given as binding are weak or reduced against the parent protein; the word gives no strength.
Target: CLEC12A (human) (UniProt Q5QGZ9)
Experiment: split reporter; HEK293T cells co-transfected with pcDNA3.4-CLEC12A-VN173 and pcDNA3.4-CLEC12A-VC155; confocal microscopy 24 h after transfection

binding: binds
B1: CLEC12A (receptor, UniProt Q5QGZ9 1-265)
chain: MSEEVTYADLQFQNSSEMEKIPEIGKFGEKAPPAPSHVWRPAALFLTLLCLLLLIGLGVLASMFHVTLKIEMKKMNKLQNISEELQRNISLQLMSNMNISNKIRNLSTTLQTIATKLCRELYSKEQEHKCKPCPRRWIWHKDSCYFLSDDVQTWQESKMACAAQNASLLKINNKNALEFIKSQSRSYDYWLGLSPEEDSTRGMRVDNIINSSAWVIRNAPDLNNMYCGYINRLYVQYYHCTYKKRMICEKMANPVQLGSTYFREA

Source: PMC10959670
